# The list shows a part of the results. Single values are uncertain here, since repeats match poorly.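 U2OS cells expressing ACE2 were combined with U2OS cells expressing full-length spike, and imaging quantified fusion as the fraction of nuclei displaying both cell types' fluorescent markers. Non-toxic compounds with a fusion z-score under -3, i.e., over three standard deviations below the plate's DMSO wells, are called inhibitory hits.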
# System: U2OS ACE2 x SARS-CoV-2 spike co-culture
# Assay: cell-cell fusion (fraction fused) z-score vs plate DMSO control; higher = more fusion
# Settings: 30 µM; 5 h; toxicity class: non-toxic, passed QC
row,SMILES,cell-cell fusion (z-score)
1,CC1=C(/C=C/C(C)=C/C=C/C(C)=C\C=C\C=C(C)/C=C/C=C(C)/C=C/C2=C(C)C(O)C(=O)CC2(C)C)C(C)(C)CC(=O)C1O (centres undefined) [Astaxanthin],inactive: 1.84
2,CC(C)(CO)C(O)C(=O)NCCC(=O)NCCSSCCNC(=O)CCNC(=O)C(O)C(C)(C)CO (centres undefined),inactive: 1.15
3,CNNCc1ccc(C(=O)NC(C)C)cc1,inactive: 2.79
4,Cc1cn([C@H]2C=C[C@@H](CO)O2)c(=O)[nH]c1=O [Stavudine],inactive: 1.18
5,CCC1=C[C@@H]2C[N@](C1)Cc1c([nH]c3ccccc13)[C@@](C(=O)OC)(c1cc3c(cc1OC)N(C)[C@H]1[C@@](O)(C(=O)OC)[C@H](OC(C)=O)[C@]4(CC)C=CCN5CC[C@@]31[C@H]54)C2 [Vinorelbine (Navelbine)],inactive: -0.9
6,COC[C@H]1C[C@@H](c2ncc(-c3ccc4c(c3)COc3cc5c(ccc6[nH]c([C@@H]7CC[C@H](C)N7C(=O)[C@@H](NC(=O)OC)C(C)C)nc65)cc3-4)[nH]2)N(C(=O)[C@H](NC(=O)OC)c2ccccc2)C1 [Velpatasvir],inactive: 3.41
7,NCCc1ccc(O)cc1 [Tyloxapol],inactive: 1.5
8,NCCc1ccc(O)cc1,inactive: 1.99
9,C[N+](C)(C)CC(O)CC(=O)O.[Cl-] (centres undefined),inactive: 1.68
10,CN1CCCN=C1/C=C/c1cccs1.O=C(O)c1cc2ccccc2c(Cc2c(O)c(C(=O)O)cc3ccccc23)c1O,inactive: 2.92
11,CC(=O)Nc1ccc(CC(=O)O)cc1,inactive: 1.7
12,CC1(C)O[C@H]2CC(=O)OC[C@]23[C@H]2CC[C@@]4(C)[C@H](c5ccoc5)OC(=O)[C@H]5O[C@]54[C@]2(C)C(=O)C[C@@H]13,inactive: 0.324
13,CN(C)CC/C=C1/c2ccccc2COc2ccc(CC(=O)O)cc21.Cl [Olopatadine hydrochloride],inactive: 2.52
14,CCCS(=O)(=O)Nc1ccc(F)c(C(=O)c2c[nH]c3ncc(Cl)cc23)c1F,inactive: 0.292
15,CC1(C)S[C@@H]2[C@H](NC(=O)C(C(=O)[O-])c3ccccc3)C(=O)N2[C@H]1C(=O)[O-].[Na+].[Na+] (some centres undefined),inactive: 0.544
16,CC(=O)OCC1=C(C(=O)O)N2C(=O)[C@@H](N)C2SC1 (some centres undefined),inactive: 3.19
17,CC(=O)NCCCCCC(=O)O,inactive: 3.89
18,N[C@H]1CONC1=O,inactive: 4.28
19,N[C@H]1CONC1=O [L-Cycloserine],inactive: 2.24
20,COc1cc2ncnc(Nc3cccc(Br)c3)c2cc1OC.Cl,inactive: 1.75
21,CCCCc1nc2cc(/C=C/C(=O)NO)ccc2n1CCN(CC)CC [SB939 (Pracinostat)],inactive: 2.07
22,N[C@@]1(C(=O)O)CC[C@@H](C(=O)O)C1 [trans-(±)-ACPD],inactive: 1.88
23,O=C(O)c1ccccc1OP(=O)(O)O,inactive: 0.259

row,SMILES,cell-cell fusion (z-score)
1,CC(O)Cn1cnc2c1c(=O)n(C)c(=O)n2C (centres undefined),inactive: 2
2,COc1ccc2c(c1OC)C(=O)O[C@H]2[C@H]1c2c(cc3c(c2OC)OCO3)CCN1C.Cl,inactive: 1.51
3,Cc1cc2nc3c(=O)[nH]c(=O)nc-3n(C[C@H](O)[C@H](O)[C@H](O)CO)c2cc1C [Riboflavin],inactive: 4.15
4,CN/C(=C\[N+](=O)[O-])NCCSCc1csc(CN(C)C)n1,inactive: 3.16
5,C[C@@H]1C[C@H]2[C@@H]3CCC4=CC(=O)C=C[C@]4(C)[C@@]3(F)[C@@H](O)C[C@]2(C)[C@H]1C(=O)CO [Desoximetasone],inactive: 0.899
6,CC1CCC(NC(=O)N(CCCl)N=O)CC1 (centres undefined),inactive: 0.0827
7,O=C([O-])c1cc2cc(Cc3cccnc3)ccc2o1.[Na+] [Furegrelate sodium],inactive: 5.41
8,NS(=O)(=O)c1cc2c(cc1Cl)NC(C1CC3C=CC1C3)NS2(=O)=O (centres undefined) [Cyclothiazide],inactive: 0.302
9,NS(=O)(=O)c1cc2c(cc1Cl)NC(C1CC3C=CC1C3)NS2(=O)=O (centres undefined),inactive: 2.04
10,CC(=O)Oc1ccc2c(c1)CCC1C2CC[C@@]2(C)C1C[C@@H](OC(C)=O)[C@@H]2OC(C)=O (some centres undefined),inactive: 2.93
11,CCOC(=O)c1c(C)cc(O)c(C=O)c1O,inactive: 1.95
12,NCC(O)c1ccc(O)c(O)c1.O=C(O)[C@H](O)[C@@H](O)C(=O)O (racemic) [(±)-Norepinephrine (+)bitartrate],inactive: -2.48
13,"CN(C(=O)Cc1ccc(Cl)c(Cl)c1)C(CN1CCCC1)c1cccc(OCC(=O)O)c1.Cl (centres undefined) [ICI 204,448 hydrochloride]",inactive: 1.93
14,COCCOc1cc2ncnc(Cl)c2cc1OCCOC,inactive: 1.44
15,Fc1cccc(/C=N/N=C/c2cccc(F)c2)c1,inactive: 3.34
16,[N-]=[N+]=CC(=O)OCC(N)C(=O)O (centres undefined),inactive: 2.05
17,O=c1c2ccccc2nc2n1CCc1c-2[nH]c2ccccc12 [Rutaecarpine],inactive: -0.516
18,CCC(=O)O[C@]1(C(=O)CCl)[C@@H](C)C[C@H]2[C@@H]3C[C@H](F)C4=CC(=O)C=C[C@]4(C)[C@@]3(F)[C@@H](O)C[C@@]21C [Halobetasol Propionate],inactive: 0.397
19,CC(=O)Oc1cc(OC(C)=O)c2c(c1)O[C@H](c1ccc(OC(C)=O)c(OC(C)=O)c1)[C@@H](OC(C)=O)C2,inactive: 0.424
20,CN1CCCC(n2nc(Cc3ccc(Cl)cc3)c3ccccc3c2=O)CC1.Cl (centres undefined),inactive: 1.17
21,Cl.NCCc1cc(O)c(O)cc1O,inactive: 0.0614
22,CC(C)CC(NC(=O)C(C)NC(=O)CNC(=O)C(NC=O)C(C)C)C(=O)NC(C)C(=O)NC(C(=O)NC(C(=O)NC(C(=O)NC(Cc1c[nH]c2ccccc12)C(=O)NC(CC(C)C)C(=O)NC(Cc1c[nH]c2ccccc12)C(=O)NC(CC(C)C)C(=O)NC(Cc1c[nH]c2ccccc12)C(=O)NC(CC(C)C)C(=O)NC(Cc1c[nH]c2ccccc12)C(=O)NCCO)C(C)C)C(C)C)C(C)C (centres undefined),active: -7.67
23,CC(=O)[C@H]1CC[C@H]2[C@@H]3CC[C@H]4C[C@](C)(O)CC[C@]4(C)[C@H]3CC[C@]12C [Ganaxolone],inactive: -0.118

row,SMILES,cell-cell fusion (z-score)
1,O=C(/C=C/c1ccccc1)c1ccc(O)cc1O,inactive: 1.37
2,CCOc1cc(/C=C2/C(=O)N(c3ccccc3)N=C2C)cc(Cl)c1OCC(=O)OC,inactive: 1.29
3,CCC(N)C(O)c1ccc(O)c(O)c1.Cl (centres undefined),inactive: -1.24
4,CS(=O)(=O)c1ccc(-n2nc(C(F)(F)F)cc2-c2ccc(F)cc2)cc1,inactive: 3.22
5,CNCC[C@H](Oc1cccc2ccccc12)c1cccs1.Cl [Duloxetine hydrochloride],inactive: 0.758
6,O=c1cc(-c2ccccc2)oc2ccc(O)cc12,inactive: 1.44
7,CC1=NN(c2ccc(C(=O)O)cc2)C(=O)/C1=C\c1ccc(-c2cc(C)c(C)cc2[N+](=O)[O-])o1,inactive: 0.455
8,CN[C@@H]1[C@@H](O)C(OC2[C@@H](N)C[C@@H](N)[C@H](O[C@H]3O[C@H](C(C)O)[C@@H](O)[C@H](O)[C@H]3N)[C@H]2O)OC[C@]1(C)O (some centres undefined),inactive: 1.9
9,CN(C)C(=O)Oc1cccc([N+](C)(C)C)c1.[Br-],inactive: -0.111
10,O=[N+]([O-])c1cccc2cn[nH]c12 [7-Nitroindazole],inactive: 2.62
11,CN1CCOC(c2ccccc2)c2ccccc2C1 (centres undefined),inactive: 1.49
12,CCN(CC)Cc1cc(Nc2ccnc3cc(Cl)ccc23)ccc1O.Cl.Cl.O.O [Amodiaquine hydrochloride],inactive: -2.61
13,CC(=O)OCC(=O)[C@H]1CC[C@H]2[C@@H]3CCC4=CC(=O)CC[C@]4(C)[C@H]3CC[C@]12C [Deoxycorticosterone acetate],inactive: 3.05
14,CCOC(=O)C1C(C=C(C)C)C1(C)C (centres undefined),inactive: 2.4
15,O=C(CCCCCCC(=O)Nc1cccnc1)NO [Pyroxamide],inactive: 2.09
16,CCN(CC)CCOc1ccc(C(=C(Cl)c2ccccc2)c2ccccc2)cc1.O=C(O)CC(O)(CC(=O)O)C(=O)O [Clomifene citrate],inactive: -2
17,CNCCc1c[nH]c(CCC(c2ccccc2)c2ccccc2)n1.O=C(O)C(=O)O.O=C(O)C(=O)O [N-Methylhistaprodifen dioxalate salt],inactive: 4.92
18,CC[C@@H]([C@H](C)O)n1ncn(-c2ccc(N3CCN(c4ccc(OC[C@@H]5CO[C@@](Cn6cncn6)(c6ccc(F)cc6F)C5)cc4)CC3)cc2)c1=O [Posaconazole],inactive: 1.41
19,CN(C)CCCN1c2ccccc2CCc2ccccc21.Cl,inactive: 0.749
20,CN(C)CCCN1c2ccccc2CCc2ccccc21.Cl [Imipramine hydrochloride],inactive: 2.36
21,Cc1cc(C)nc(NS(=O)(=O)c2ccc(N)cc2)n1 [Sulfamethazine],inactive: 3.12
22,CC[C@@H]1C(=O)N(C)c2cnc(Nc3ccc(C(=O)NC4CCN(C)CC4)cc3OC)nc2N1C1CCCC1,inactive: 2.11
23,CN(C)c1ccc(NCc2ccccn2)cc1,inactive: 3.85

# Single values from the list:
# Under cell-cell fusion (z-score), CN(C)C(=O)Oc1cccc([N+](C)(C)C)c1.[Br-] shows inactive: -0.111
# Under cell-cell fusion (z-score), CN(C)c1ccc(NCc2ccccn2)cc1 shows inactive: 3.85

# Reprinted from the listing for reference:
row,SMILES,cell-cell fusion (z-score)
17,CC(=O)NCCCCCC(=O)O,inactive: 3.89
18,N[C@H]1CONC1=O,inactive: 4.28

# — the supplement of paper PMC8104966
